The supplement of paper PMC12595434, “Development of retinoid nuclear receptor pathway antagonists through targeting aldehyde dehydrogenase 1A3” (iScience, 2025)
This is one part of the list. The data scatter; read single values as rough.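 Tm was set to 64 °C where no melting was found, and many curves are irregular.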

By UniProt entry, the sequences of proteins in these tests, tags left out. Where a name states a change or a piece, a line headed by the entry shows the natural chain unless it says otherwise.
UniProt Q8NC60: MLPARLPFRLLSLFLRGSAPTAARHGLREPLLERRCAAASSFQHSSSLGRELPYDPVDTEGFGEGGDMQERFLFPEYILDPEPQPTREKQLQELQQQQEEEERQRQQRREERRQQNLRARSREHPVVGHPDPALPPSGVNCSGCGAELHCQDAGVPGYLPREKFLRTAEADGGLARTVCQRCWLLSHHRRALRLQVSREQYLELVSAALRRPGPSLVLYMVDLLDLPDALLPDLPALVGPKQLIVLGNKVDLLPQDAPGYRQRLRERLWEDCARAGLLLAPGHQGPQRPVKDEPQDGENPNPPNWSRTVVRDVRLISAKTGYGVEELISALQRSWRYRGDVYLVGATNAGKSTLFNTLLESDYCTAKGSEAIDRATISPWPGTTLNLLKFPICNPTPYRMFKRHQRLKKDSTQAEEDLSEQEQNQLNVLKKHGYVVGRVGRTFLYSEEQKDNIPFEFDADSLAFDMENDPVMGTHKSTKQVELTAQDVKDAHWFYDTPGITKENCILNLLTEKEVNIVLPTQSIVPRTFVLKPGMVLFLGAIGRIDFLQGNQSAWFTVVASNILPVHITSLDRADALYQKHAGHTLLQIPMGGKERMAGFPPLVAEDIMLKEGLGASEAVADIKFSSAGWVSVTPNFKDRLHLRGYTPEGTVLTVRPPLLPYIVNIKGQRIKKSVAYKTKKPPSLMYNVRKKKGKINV
UniProt Q8NB15: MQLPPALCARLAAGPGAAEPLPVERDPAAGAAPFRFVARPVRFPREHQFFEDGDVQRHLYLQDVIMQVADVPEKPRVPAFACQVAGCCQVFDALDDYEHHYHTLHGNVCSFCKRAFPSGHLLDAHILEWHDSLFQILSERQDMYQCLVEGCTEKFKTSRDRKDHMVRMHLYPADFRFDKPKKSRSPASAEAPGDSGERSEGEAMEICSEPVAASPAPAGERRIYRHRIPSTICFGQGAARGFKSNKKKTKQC
UniProt Q8WW01: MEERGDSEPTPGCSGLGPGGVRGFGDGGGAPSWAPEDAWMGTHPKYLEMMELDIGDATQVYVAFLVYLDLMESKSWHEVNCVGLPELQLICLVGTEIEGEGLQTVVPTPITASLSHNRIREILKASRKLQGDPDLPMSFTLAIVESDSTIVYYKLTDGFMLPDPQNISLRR
UniProt Q8TCS8: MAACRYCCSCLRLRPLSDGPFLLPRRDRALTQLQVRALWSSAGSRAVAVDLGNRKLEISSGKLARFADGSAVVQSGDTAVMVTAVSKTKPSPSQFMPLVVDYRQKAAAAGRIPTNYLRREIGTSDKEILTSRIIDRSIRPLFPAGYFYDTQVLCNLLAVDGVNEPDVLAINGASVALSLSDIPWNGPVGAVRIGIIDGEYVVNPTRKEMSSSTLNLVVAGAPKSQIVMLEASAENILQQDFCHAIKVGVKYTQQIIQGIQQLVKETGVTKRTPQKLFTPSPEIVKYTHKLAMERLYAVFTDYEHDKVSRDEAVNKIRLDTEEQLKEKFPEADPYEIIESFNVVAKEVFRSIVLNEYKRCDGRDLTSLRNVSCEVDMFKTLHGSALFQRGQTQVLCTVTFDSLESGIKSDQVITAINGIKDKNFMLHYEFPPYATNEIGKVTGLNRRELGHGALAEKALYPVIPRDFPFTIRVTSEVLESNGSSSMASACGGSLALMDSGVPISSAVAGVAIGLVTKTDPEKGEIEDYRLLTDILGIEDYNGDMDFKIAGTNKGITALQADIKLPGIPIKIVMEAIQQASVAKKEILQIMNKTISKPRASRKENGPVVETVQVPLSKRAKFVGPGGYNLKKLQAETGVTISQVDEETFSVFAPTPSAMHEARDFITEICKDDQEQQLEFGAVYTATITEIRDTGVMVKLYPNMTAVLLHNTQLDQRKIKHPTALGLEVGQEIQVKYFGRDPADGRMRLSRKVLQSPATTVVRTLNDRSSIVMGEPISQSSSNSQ
UniProt Q8NHZ8, whole entry: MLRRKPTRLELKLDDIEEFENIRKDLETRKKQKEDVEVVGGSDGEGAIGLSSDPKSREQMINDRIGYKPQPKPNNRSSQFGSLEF
UniProt Q8NCN5: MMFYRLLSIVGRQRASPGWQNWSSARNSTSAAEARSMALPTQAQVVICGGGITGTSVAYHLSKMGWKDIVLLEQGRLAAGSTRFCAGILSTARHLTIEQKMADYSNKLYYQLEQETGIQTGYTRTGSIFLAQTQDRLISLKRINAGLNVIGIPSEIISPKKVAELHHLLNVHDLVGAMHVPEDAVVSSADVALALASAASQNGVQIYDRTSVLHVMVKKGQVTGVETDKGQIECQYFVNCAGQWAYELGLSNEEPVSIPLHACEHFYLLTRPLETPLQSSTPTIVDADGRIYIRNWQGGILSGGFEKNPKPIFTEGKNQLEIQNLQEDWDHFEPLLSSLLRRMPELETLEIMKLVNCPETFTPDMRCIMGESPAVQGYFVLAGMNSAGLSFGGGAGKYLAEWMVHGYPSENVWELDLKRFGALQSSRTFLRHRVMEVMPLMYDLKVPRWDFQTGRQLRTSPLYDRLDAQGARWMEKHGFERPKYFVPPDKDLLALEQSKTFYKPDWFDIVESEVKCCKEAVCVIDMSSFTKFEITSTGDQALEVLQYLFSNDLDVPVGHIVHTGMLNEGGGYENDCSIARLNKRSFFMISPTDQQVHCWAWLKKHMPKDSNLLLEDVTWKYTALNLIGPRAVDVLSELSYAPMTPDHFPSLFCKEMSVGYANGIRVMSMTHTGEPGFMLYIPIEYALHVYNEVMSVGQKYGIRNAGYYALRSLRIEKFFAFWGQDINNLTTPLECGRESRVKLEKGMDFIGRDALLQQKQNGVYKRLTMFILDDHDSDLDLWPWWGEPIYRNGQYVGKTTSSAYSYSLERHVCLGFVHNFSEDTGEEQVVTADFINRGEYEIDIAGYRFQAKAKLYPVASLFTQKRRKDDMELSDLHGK
UniProt Q8WUY8: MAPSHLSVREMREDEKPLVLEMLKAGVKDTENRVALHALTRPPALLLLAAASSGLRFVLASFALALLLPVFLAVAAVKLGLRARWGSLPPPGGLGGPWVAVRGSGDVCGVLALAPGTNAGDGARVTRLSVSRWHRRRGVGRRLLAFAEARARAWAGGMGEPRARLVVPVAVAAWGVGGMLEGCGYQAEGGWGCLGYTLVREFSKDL
UniProt Q8NB46: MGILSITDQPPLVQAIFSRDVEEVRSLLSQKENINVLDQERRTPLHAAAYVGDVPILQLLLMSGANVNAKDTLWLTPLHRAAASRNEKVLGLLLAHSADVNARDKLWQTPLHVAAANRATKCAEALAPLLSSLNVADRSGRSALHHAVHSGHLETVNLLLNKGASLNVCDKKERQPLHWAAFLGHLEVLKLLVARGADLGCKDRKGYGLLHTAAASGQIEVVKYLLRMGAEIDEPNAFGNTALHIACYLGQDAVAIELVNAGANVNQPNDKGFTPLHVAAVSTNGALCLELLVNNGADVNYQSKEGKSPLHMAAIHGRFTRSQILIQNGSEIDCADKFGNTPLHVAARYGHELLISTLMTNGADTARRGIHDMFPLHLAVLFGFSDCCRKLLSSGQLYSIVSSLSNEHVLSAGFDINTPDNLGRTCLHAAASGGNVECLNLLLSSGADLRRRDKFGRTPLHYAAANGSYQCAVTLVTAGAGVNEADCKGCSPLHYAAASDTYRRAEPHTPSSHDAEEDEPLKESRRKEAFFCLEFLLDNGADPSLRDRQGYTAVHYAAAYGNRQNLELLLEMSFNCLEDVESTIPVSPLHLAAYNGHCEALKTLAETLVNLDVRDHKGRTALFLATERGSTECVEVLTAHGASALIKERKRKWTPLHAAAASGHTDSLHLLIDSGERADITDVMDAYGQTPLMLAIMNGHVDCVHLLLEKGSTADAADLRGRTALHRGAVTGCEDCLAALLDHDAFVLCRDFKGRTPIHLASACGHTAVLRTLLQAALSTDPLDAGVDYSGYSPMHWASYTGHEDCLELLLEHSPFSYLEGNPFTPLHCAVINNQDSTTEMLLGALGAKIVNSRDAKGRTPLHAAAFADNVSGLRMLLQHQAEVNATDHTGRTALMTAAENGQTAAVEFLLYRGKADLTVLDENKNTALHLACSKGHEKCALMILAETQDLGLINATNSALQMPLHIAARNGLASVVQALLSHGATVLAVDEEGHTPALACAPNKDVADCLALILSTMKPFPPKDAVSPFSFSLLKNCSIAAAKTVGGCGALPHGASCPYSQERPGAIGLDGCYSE
UniProt Q8TF46, whole entry: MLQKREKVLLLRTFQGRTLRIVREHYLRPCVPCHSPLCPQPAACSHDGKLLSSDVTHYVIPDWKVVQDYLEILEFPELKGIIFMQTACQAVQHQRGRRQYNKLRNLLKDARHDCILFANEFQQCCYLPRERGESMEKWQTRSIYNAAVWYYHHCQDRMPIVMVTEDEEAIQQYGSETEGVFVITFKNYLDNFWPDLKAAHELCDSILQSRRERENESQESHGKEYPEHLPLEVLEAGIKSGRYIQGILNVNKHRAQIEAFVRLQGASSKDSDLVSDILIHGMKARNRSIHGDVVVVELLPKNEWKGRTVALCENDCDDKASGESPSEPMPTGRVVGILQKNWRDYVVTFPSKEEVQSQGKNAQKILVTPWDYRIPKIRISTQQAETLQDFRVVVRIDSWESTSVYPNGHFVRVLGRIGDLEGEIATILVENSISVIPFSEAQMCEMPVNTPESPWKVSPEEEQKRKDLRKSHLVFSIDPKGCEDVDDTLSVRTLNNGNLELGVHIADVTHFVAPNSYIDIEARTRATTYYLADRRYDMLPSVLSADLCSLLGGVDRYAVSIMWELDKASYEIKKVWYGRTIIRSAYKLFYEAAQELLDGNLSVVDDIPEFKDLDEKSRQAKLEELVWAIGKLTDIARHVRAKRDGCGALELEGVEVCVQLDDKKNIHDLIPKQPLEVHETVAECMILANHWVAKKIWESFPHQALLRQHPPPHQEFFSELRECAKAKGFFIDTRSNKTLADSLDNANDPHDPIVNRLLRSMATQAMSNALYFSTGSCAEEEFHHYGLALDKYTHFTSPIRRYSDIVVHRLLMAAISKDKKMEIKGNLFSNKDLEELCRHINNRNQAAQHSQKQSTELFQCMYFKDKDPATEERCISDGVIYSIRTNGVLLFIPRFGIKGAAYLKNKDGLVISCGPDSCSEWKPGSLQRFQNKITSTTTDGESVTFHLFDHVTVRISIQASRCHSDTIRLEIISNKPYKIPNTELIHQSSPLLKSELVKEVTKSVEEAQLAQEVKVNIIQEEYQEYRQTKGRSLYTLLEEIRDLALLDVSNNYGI
UniProt Q8TB24: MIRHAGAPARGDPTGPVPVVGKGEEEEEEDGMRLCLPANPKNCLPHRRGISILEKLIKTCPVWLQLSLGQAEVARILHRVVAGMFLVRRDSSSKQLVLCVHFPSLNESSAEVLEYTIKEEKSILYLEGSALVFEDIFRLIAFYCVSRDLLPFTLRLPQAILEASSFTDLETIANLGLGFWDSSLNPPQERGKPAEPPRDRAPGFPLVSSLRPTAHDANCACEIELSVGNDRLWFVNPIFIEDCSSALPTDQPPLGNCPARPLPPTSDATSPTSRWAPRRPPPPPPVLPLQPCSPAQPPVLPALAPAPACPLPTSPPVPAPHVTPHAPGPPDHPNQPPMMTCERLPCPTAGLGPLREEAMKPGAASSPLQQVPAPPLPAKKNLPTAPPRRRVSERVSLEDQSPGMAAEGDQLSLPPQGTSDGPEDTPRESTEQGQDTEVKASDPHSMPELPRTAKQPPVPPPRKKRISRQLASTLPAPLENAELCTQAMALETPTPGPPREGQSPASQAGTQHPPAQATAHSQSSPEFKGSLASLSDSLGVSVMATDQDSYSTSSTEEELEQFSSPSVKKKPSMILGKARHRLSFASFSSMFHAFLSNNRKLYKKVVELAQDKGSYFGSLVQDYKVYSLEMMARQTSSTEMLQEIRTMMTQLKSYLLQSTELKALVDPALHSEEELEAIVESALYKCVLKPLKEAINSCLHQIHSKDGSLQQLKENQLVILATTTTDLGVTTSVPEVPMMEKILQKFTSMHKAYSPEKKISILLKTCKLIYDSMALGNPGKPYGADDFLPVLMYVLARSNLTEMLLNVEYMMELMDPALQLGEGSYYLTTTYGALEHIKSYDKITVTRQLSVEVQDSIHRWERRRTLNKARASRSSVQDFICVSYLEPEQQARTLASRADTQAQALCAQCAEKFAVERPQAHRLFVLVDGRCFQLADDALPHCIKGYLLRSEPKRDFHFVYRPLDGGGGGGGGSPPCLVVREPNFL
UniProt Q8WVF1: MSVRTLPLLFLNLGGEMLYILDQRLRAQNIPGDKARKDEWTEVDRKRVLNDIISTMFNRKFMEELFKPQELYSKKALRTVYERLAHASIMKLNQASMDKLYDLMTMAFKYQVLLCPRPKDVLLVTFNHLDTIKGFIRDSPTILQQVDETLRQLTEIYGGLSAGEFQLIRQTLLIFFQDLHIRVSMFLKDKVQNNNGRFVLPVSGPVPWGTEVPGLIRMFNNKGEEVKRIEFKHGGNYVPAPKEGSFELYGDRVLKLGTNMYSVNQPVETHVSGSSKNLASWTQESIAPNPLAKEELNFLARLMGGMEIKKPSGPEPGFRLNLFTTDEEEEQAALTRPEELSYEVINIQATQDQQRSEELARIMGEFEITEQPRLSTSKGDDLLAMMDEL

The targets below were run with CCc1cnccc1C(=O)Nc1cc2c(cc1F)NC(=O)CC2 (assay: melting temperature shift (DMSO Tm minus MBE1-treated Tm) in cellular thermal proteome profiling; higher = less thermal stabilization by MBE1 (negative = stabilized by MBE1)). Conditions: A375; MBE1 concentration: 100 nM.

Row | Target | melting temperature shift [°C]
1 | NOA1 (UniProt Q8NC60) | -1.66
2 | UniProt Q8NB15 | 0.452
3 | UniProt Q8TD43 | 0.248
4 | UniProt Q8TCA0 | -1.84
5 | UniProt Q8NFJ9 | 1.36
6 | UniProt Q8WUN7 | -1.32
7 | TSEN15 (UniProt Q8WW01) | -1.34
8 | EXOC6 (UniProt Q8TAG9) | -0.92
9 | PNPT1 (UniProt Q8TCS8) | 0.655
10 | CDC26 (UniProt Q8NHZ8) | -11.6
11 | GADD45GIP1 (UniProt Q8TAE8) | -0.354
12 | UniProt Q8NFZ0 | -1.44
13 | PDPR (UniProt Q8NCN5) | -0.302
14 | BICD2 (UniProt Q8TD16) | 0.183
15 | CMAS (UniProt Q8NFW8) | 0.263
16 | UniProt Q8TEV9 | -0.349
17 | UniProt Q8WUY8 | 0.891
18 | TTC13 (UniProt Q8NBP0) | -0.202
19 | UniProt Q8TF72 | -4.67
20 | ANKRD52 (UniProt Q8NB46) | -0.433
21 | CACTIN (UniProt Q8WUQ7) | 0.0733
22 | LSM14A (UniProt Q8ND56) | 0.128
23 | UniProt Q8WUB2 | -1.64
24 | UniProt Q8NCD3 | -2.69
25 | DIS3L (UniProt Q8TF46) | -0.814
26 | SPC24 (UniProt Q8NBT2) | 0.605
27 | UniProt Q8TB24 | -0.216
28 | UniProt Q8WVF1 | 0.421

Fetched one by one from above:
Row | Target | melting temperature shift [°C]
2 | UniProt Q8NB15 | 0.452
23 | UniProt Q8WUB2 | -1.64
